Assay results reported in PMC9247205.
No constants are given. Whether binding was seen depends on the method and setting. Binding can be weak; no strength is given. Tags and fused reporters may be left off the sequences shown.

Assays:
Assay in all cases: far-Western, overlay or dot blot; total protein extracts (20 µg) of V, 84 and ΔC amoeba transformants on 12% SDS-PAGE, blotted onto nitrocellulose, blocked with PBS-0.02% Tween 20-5% skimmed milk, incubated with 10 mM (so in the source) GST-SF1KQ or His-84KQ; developed with anti-GST or anti-His; only the binder purified
[1] = target: T1, 35-kDa protein of amoeba extracts recognised by H6-84KQ, taken by the paper as EhSF1 (Entamoeba histolytica (endogenous in trophozoites)) (UniProt C4M4V3)
T1 sequence: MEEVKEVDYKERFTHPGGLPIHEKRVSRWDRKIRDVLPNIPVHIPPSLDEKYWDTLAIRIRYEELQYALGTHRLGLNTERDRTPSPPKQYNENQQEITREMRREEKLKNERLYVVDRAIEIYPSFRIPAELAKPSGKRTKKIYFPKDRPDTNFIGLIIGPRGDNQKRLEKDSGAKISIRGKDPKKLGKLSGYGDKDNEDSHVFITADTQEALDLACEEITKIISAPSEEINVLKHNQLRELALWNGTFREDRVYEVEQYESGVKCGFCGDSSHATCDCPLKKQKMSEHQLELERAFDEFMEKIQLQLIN

[2] = target: T2, EhU2AF2, full length, overexpressed from pHA-U2AF2 in amoeba transformants (Entamoeba histolytica) (UniProt C4LXB3)
T2 sequence: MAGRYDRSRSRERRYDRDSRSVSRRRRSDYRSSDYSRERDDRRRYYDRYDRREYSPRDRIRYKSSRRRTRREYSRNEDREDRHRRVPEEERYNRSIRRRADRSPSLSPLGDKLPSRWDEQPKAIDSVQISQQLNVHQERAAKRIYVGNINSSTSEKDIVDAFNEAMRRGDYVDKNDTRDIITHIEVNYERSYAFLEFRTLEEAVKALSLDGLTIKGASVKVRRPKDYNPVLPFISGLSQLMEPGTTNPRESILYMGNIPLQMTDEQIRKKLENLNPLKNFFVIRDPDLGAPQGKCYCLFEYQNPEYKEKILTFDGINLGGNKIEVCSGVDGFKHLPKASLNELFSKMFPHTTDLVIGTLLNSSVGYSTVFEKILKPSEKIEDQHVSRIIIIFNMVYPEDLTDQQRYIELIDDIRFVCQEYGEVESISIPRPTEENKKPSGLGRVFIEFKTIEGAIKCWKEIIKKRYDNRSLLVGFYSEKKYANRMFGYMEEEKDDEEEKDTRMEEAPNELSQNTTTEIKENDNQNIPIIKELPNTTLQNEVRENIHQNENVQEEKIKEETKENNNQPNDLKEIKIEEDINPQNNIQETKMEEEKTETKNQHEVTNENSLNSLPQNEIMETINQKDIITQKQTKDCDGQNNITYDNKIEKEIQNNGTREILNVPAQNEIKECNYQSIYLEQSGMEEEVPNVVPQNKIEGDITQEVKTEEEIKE

[3] = target: T3, Endogenous EhU2AF2 in empty vector (V) amoeba transformants (Entamoeba histolytica (endogenous in trophozoites)) (UniProt C4LXB3)
T3 sequence: T2 sequence

His-tagged 84KQ (KH-QUA2 domain of EhU2AF2) (Entamoeba histolytica) (domain or fragment)
binding [1]: binds

GST-tagged SF1KQ (KH-QUA2 domain of EhSF1) (Entamoeba histolytica) (domain or fragment)
binding [2]: binds
binding [3]: binds
